{"sequences": {"note": "Chains of the proteins cited; added tags and fusions are not shown. Residues count along the entry.", "UniProt Q9Y618, residues 1020-2514": "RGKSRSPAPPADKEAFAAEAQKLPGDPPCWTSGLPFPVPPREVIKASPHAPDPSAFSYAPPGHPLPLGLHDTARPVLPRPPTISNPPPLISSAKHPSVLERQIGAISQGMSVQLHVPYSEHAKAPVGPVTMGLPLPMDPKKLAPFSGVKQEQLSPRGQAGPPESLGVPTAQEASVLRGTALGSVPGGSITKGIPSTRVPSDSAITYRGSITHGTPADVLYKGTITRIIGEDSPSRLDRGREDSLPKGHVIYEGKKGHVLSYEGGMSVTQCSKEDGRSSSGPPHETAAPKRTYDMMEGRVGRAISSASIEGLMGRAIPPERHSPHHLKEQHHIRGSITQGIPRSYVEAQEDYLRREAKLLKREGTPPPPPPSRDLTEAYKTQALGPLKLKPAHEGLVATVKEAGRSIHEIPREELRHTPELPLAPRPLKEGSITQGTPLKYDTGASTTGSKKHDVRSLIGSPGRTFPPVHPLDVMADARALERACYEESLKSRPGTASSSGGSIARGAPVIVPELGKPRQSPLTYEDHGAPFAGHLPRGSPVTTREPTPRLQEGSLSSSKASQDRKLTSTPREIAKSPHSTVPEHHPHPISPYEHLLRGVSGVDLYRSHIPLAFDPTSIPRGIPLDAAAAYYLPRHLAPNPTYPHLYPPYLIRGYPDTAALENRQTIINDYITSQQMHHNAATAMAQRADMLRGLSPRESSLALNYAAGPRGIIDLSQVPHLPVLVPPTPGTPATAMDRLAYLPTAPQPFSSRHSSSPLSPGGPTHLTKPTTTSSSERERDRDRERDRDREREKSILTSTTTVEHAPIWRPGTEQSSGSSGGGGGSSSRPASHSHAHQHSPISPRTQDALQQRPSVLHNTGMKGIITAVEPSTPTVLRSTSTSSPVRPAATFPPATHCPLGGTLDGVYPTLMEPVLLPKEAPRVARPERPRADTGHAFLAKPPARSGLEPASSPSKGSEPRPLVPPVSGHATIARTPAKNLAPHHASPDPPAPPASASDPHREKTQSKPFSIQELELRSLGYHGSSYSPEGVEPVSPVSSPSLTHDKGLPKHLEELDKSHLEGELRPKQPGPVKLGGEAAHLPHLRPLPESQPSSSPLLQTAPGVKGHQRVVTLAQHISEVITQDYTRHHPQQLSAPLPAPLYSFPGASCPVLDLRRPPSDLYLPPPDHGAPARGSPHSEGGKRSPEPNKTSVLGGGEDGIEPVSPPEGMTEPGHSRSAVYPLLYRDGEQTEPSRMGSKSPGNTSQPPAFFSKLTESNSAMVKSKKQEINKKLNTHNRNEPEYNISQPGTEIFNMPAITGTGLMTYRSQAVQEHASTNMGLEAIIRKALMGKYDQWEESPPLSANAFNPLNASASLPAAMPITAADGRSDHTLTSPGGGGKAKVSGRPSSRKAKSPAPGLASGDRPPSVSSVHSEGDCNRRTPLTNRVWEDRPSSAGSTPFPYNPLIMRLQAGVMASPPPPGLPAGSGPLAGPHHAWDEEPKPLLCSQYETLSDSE"}, "source": "patent US6706762", "target": "T1, HA-PLZF (UniProt Q05516)", "T1 sequence (looked up)": "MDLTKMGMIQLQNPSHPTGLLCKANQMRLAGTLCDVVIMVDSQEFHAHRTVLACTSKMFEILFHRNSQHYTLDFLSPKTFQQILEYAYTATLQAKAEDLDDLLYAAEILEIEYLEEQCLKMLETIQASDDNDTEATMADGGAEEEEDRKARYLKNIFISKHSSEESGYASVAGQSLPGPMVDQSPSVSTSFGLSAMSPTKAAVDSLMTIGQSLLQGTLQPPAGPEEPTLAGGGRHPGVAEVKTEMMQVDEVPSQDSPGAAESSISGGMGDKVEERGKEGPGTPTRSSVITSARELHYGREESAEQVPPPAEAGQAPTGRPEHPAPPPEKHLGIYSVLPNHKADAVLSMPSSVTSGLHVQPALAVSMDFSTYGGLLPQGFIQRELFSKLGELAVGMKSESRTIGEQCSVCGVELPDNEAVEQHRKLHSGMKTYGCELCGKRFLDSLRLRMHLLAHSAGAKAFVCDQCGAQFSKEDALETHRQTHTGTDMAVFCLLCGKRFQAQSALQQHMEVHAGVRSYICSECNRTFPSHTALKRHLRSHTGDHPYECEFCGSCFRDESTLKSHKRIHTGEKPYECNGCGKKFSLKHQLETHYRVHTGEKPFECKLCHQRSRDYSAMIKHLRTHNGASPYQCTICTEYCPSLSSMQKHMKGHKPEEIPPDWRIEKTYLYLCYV", "experiment": "anti-HA immunoprecipitation of in vitro translated proteins", "note": "These are yes or no findings as the source states them, for the method shown. Some results given as binding are weak or reduced against the parent protein; the word gives no strength. Sequences can lack the tags named with a protein.", "data": [{"substance": "SMRT (full length) (from UniProt Q9Y618 1020-2514)", "values": [{"measurement": "binding", "result": "binds"}]}]}
